For one compound, pEC50 results are on record in PMC10952895, “Assessment of the potential of novel and classical opioids to induce respiratory depression in mice” (British Journal of Pharmacology, 2023).

SMILES strings stand for the structures.

This assay deals with T1, μ-receptor (μ-receptor-RLuc8).
T1 construct: gene Oprm1; construct from Gillis, Gondin et al. 2020
The assay can be described thus: BRET, Nb33-Venus recruitment to μ-receptor-RLuc8 in HEK293 cells. The note with it: agonist; 10 min after addition, normalised to DAMGO. The format is cell-based. For orientation: Bioluminescence resonance energy transfer reports proximity on the nanometre scale.

Turning to `CCC(=O)C(CC(C)N(C)C)(c1ccccc1)c1ccccc1` (stereo not shown) [methadone], the negative-log EC50 (pEC50) (in general, −log10 of the EC50, conventionally taken in molar units) came out at 6.5 ± 0.05.
